Reference: the supplement of paper PMC12823440, “Inhibitors supercharge kinase turnover through native proteolytic circuits” (Nature, 2025)
Counter-ions that a name gives are not always drawn. The list shows a part of the results. The calls rarely recur for the same compound in another form.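 Kinases were expressed as nanoluciferase fusions in K562 cells and luminescence was read every 4 h between 2 and 18 h as percent of control, DMSO set to 100% and a positive control to 0%. A time point counts as decreased when the signal drops significantly (2 sigma). The hit call is the authors' own, does not follow from the count of time points alone, and its rule is not shown.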

The chains behind the UniProt entries cited, without tags or fusion partners. Where a name states a change or a piece, a line headed by the entry shows the natural chain unless it says otherwise.
UniProt P21860, whole entry: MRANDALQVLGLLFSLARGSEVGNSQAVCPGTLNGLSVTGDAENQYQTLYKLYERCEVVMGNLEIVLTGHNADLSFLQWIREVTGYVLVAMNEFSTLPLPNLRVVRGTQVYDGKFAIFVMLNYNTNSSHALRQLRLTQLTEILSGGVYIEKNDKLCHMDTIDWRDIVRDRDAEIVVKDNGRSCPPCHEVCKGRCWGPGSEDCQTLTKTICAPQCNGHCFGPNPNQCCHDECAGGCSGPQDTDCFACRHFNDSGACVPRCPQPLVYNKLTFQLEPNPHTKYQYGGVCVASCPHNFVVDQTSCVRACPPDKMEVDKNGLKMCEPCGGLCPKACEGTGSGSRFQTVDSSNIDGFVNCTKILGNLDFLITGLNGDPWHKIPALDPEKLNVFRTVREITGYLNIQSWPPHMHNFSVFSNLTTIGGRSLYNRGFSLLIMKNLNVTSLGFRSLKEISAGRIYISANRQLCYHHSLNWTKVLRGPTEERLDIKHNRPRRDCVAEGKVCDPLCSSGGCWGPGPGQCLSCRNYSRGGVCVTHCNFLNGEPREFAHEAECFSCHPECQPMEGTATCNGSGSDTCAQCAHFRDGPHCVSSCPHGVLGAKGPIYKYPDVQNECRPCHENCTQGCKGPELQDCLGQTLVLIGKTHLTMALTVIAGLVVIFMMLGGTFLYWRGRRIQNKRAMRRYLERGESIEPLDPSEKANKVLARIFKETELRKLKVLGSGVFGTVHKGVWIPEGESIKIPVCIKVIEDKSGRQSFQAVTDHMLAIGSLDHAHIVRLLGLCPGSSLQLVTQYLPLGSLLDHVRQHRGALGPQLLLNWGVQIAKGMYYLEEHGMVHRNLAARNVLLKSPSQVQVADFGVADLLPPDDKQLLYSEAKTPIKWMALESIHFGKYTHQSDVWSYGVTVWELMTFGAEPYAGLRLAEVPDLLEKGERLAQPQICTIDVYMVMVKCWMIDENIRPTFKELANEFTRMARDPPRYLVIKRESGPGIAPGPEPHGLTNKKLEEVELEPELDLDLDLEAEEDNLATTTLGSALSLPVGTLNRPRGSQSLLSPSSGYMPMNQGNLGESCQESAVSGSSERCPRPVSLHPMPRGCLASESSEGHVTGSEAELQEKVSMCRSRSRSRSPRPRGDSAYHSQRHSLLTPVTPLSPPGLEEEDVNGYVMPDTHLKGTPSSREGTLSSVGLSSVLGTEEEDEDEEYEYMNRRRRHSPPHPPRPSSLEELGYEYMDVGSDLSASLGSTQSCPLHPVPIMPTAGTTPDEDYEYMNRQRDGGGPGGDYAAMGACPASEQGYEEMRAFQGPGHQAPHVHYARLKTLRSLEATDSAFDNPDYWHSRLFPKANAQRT
UniProt Q15303, whole entry R711C: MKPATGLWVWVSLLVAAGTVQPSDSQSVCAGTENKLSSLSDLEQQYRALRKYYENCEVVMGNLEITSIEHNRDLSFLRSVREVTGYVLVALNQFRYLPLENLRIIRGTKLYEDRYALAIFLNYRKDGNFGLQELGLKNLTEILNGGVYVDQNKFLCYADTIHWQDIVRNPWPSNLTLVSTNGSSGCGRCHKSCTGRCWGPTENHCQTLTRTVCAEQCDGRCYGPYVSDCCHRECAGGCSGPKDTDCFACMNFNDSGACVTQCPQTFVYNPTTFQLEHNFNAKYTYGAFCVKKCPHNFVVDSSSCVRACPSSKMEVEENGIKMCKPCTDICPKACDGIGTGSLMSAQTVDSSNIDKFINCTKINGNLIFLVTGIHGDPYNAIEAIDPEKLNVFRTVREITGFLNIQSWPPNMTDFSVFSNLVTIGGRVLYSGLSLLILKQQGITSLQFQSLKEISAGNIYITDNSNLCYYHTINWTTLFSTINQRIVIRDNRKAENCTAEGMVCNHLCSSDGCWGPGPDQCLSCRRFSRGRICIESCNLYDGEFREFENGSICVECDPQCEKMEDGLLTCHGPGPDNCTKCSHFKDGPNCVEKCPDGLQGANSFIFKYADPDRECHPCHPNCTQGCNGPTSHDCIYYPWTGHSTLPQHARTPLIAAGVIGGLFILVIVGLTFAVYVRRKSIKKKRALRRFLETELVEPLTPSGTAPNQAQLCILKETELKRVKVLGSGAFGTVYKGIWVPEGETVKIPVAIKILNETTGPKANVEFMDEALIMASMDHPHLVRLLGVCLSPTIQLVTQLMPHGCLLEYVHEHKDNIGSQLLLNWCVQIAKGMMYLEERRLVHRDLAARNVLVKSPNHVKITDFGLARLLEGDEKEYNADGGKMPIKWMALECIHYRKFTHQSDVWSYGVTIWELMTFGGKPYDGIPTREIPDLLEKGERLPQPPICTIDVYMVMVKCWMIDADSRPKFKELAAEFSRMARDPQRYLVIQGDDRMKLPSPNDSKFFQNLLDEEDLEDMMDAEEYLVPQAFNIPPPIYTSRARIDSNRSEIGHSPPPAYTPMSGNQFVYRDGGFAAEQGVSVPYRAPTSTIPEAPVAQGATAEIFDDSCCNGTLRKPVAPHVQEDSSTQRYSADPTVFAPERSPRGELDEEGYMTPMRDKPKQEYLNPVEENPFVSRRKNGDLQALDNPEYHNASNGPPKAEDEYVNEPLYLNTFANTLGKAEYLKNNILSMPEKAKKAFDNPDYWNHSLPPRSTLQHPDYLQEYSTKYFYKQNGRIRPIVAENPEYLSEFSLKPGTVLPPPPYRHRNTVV
UniProt O75460: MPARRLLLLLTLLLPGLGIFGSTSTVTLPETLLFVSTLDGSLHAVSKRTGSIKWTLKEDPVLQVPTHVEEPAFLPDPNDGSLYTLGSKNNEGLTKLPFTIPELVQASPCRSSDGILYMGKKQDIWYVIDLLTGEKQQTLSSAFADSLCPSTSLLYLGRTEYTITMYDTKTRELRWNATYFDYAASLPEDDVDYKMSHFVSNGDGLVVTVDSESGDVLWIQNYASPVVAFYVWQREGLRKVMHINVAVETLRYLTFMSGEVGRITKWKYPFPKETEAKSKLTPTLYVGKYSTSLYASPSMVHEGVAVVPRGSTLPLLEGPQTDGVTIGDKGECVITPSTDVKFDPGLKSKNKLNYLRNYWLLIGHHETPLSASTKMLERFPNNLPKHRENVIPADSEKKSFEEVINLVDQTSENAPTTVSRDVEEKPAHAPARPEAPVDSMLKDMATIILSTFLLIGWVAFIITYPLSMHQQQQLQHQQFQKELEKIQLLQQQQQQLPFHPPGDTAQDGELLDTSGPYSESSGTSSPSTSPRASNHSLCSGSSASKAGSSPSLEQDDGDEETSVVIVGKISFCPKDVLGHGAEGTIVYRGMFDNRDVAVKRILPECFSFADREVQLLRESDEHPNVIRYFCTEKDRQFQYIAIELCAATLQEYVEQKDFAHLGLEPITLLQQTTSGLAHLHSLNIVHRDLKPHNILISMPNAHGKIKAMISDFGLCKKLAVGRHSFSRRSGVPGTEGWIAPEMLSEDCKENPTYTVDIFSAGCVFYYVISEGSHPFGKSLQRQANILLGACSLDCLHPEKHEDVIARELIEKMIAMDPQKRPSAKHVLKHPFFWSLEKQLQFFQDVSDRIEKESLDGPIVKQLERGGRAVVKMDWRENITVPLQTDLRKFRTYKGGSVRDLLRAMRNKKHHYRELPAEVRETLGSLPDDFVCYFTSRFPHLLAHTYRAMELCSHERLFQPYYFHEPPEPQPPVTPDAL
UniProt P11362, whole entry, looked up: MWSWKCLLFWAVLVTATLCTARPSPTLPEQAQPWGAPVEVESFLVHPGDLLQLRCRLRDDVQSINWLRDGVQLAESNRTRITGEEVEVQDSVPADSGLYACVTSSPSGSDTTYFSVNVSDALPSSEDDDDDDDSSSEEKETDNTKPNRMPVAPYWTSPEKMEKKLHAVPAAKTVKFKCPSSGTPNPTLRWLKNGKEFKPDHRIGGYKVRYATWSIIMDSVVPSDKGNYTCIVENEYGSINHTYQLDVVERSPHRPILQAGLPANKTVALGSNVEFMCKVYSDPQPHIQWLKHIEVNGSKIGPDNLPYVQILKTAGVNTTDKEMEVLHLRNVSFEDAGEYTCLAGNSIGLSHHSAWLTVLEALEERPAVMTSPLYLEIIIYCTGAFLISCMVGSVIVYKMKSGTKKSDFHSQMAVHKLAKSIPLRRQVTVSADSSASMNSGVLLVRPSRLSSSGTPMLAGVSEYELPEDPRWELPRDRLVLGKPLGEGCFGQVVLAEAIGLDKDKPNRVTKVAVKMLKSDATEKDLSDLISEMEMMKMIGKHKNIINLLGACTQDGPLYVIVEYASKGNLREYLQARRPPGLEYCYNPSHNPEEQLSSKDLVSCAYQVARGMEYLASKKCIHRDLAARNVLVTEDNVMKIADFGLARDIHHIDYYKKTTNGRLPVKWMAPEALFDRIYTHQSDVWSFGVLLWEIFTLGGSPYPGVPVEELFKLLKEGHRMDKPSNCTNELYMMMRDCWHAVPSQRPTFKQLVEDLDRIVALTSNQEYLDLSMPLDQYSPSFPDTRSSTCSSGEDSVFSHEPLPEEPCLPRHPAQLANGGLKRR
UniProt P22607, whole entry, looked up: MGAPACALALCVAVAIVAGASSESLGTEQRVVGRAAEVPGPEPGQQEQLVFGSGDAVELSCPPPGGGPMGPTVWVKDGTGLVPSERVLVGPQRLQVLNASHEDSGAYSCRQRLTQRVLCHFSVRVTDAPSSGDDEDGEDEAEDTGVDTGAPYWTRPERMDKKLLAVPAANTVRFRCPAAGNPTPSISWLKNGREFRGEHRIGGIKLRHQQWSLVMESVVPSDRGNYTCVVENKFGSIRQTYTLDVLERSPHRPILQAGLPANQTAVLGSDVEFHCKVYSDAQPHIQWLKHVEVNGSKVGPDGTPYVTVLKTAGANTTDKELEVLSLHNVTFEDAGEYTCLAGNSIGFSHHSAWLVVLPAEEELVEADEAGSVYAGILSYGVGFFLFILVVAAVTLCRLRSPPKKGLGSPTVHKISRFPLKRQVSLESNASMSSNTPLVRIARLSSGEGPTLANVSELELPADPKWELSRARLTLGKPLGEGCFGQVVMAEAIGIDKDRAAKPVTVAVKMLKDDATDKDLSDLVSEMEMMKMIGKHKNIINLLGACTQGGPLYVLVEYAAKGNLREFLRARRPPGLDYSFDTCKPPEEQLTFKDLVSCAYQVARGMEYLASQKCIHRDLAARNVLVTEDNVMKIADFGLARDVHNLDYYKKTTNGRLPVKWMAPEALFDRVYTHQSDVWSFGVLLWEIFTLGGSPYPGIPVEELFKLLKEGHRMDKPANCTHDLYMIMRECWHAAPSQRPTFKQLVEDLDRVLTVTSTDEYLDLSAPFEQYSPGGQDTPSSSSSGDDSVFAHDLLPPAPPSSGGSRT
UniProt P14616: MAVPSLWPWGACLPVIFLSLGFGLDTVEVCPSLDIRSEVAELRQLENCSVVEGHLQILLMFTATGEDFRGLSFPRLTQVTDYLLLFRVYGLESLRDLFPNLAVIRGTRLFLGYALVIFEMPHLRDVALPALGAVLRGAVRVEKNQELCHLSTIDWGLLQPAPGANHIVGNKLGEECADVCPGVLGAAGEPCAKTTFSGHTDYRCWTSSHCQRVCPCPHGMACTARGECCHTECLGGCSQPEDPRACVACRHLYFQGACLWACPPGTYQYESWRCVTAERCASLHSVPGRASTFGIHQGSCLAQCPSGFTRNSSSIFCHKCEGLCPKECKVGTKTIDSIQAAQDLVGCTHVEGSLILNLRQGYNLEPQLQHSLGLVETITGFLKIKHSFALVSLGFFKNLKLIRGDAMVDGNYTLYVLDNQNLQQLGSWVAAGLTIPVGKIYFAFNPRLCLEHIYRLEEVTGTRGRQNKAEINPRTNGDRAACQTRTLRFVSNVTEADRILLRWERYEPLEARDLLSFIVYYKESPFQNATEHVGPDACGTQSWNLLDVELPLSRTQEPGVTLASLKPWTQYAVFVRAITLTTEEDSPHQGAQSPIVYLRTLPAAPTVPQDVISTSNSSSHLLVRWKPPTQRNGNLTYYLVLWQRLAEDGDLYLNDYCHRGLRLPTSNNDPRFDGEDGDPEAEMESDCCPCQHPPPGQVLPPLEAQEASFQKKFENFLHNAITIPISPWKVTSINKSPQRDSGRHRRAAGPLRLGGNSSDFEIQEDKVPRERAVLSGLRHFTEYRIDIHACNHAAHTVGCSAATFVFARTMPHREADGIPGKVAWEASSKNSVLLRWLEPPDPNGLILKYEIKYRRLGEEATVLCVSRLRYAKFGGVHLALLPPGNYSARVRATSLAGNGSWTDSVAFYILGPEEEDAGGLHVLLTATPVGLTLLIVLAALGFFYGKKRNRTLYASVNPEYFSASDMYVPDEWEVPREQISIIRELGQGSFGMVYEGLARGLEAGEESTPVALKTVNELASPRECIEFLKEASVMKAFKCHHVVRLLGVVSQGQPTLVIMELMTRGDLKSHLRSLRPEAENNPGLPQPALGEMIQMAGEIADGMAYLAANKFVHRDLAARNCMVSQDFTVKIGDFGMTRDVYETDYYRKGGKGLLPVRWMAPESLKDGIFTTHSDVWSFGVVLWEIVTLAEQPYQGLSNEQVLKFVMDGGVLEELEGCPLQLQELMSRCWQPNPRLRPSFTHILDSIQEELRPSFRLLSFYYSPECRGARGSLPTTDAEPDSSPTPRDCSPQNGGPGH

Tests used:
Assay in all cases: kinase-Nluc reporter destabilization hit call (1 = scored as downregulated) (binary); higher = compound decreases kinase abundance
Details in all cases: K562; 2-18 h
[1] = target: EGFR (UniProt P00533)
[2] = target: EGFR_G719S (UniProt P00533)
[3] = target: EGFR_G719S_T790M (UniProt P00533)
[4] = target: EGFR_L718V (UniProt P00533)
[5] = target: EGFR_L858R (UniProt P00533)
[6] = target: EGFR_L861Q (UniProt P00533)
[7] = target: EGFR_T790M (UniProt P00533)
[8] = target: EPHA2 (UniProt P29317)
[9] = target: ERBB3 (UniProt P21860)
[10] = target: ERBB4_R711C (clone: ERBB4_mut) (UniProt Q15303)
[11] = target: ERN1 (UniProt O75460)
[12] = target: FGFR1 (UniProt P11362)
[13] = target: FGFR2 (UniProt P21802)
[14] = target: FGFR3 (UniProt P22607)
[15] = target: FGR (UniProt P09769)
[16] = target: FLT3 (UniProt P36888)
[17] = target: FYN (UniProt P06241)
[18] = target: GSK3A (UniProt P49840)
[19] = target: HER2 (UniProt P04626)
[20] = target: INSRR (UniProt P14616)

| SMILES | kinase-Nluc reporter destabilization hit call [1] | kinase-Nluc reporter destabilization hit call [2] | kinase-Nluc reporter destabilization hit call [3] | kinase-Nluc reporter destabilization hit call [4] | kinase-Nluc reporter destabilization hit call [5] | kinase-Nluc reporter destabilization hit call [6] | kinase-Nluc reporter destabilization hit call [7] | kinase-Nluc reporter destabilization hit call [8] | kinase-Nluc reporter destabilization hit call [9] | kinase-Nluc reporter destabilization hit call [10] | kinase-Nluc reporter destabilization hit call [11] | kinase-Nluc reporter destabilization hit call [12] | kinase-Nluc reporter destabilization hit call [13] | kinase-Nluc reporter destabilization hit call [14] | kinase-Nluc reporter destabilization hit call [15] | kinase-Nluc reporter destabilization hit call [16] | kinase-Nluc reporter destabilization hit call [17] | kinase-Nluc reporter destabilization hit call [18] | kinase-Nluc reporter destabilization hit call [19] | kinase-Nluc reporter destabilization hit call [20] |
| --- | --- | --- | --- | --- | --- | --- | --- | --- | --- | --- | --- | --- | --- | --- | --- | --- | --- | --- | --- | --- |
| CO/N=C1/C(c2c(O)[nH]c3cc(Cl)c(Cl)cc23)=Nc2ccccc21 (10 µM) | inactive: 0 | inactive: 0 | inactive: 0 | inactive: 0 | inactive: 0 | inactive: 0 | inactive: 0 | inactive: 0 | inactive: 0 | inactive: 0 | inactive: 0 | inactive: 0 | inactive: 0 | inactive: 0 | inactive: 0 | inactive: 0 | inactive: 0 | inactive: 0 | inactive: 0 | inactive: 0 |
| CS(=O)(=O)c1cccc(CNc2nc(Nc3ccc4c(c3)CCC(=O)N4)ncc2C(F)(F)F)c1 (10 µM) | inactive: 0 | inactive: 0 | inactive: 0 | inactive: 0 | inactive: 0 | inactive: 0 | inactive: 0 | inactive: 0 | inactive: 0 | inactive: 0 | inactive: 0 | inactive: 0 | inactive: 0 | inactive: 0 | inactive: 0 | inactive: 0 | inactive: 0 | inactive: 0 | inactive: 0 | inactive: 0 |
| CN(C)CCOc1cc(-c2cn[nH]c2)ccc1NC(=O)C1COc2ccccc2O1 (stereo not given) (10 µM) | inactive: 0 | inactive: 0 | inactive: 0 | inactive: 0 | inactive: 0 | inactive: 0 | inactive: 0 | inactive: 0 | inactive: 0 | inactive: 0 | inactive: 0 | inactive: 0 | inactive: 0 | inactive: 0 | inactive: 0 | inactive: 0 | inactive: 0 | inactive: 0 | inactive: 0 | inactive: 0 |
| COc1ccc2cc1Oc1ccc(cc1)C[C@H]1c3cc(c(OC)cc3CCN1C)Oc1c(O)c(OC)cc3c1[C@H](C2)N(C)CC3 [Fangchinoline] (2.5 µM) | inactive: 0 | inactive: 0 | inactive: 0 | inactive: 0 | inactive: 0 | inactive: 0 | inactive: 0 | inactive: 0 | inactive: 0 | inactive: 0 | inactive: 0 | inactive: 0 | inactive: 0 | inactive: 0 | inactive: 0 | inactive: 0 | inactive: 0 | inactive: 0 | inactive: 0 | inactive: 0 |
| COc1ccc(Cl)cc1N(CC(=O)Nc1ccc2c(c1)OCO2)S(=O)(=O)c1ccccc1 (2.5 µM) | inactive: 0 | inactive: 0 | inactive: 0 | inactive: 0 | inactive: 0 | inactive: 0 | inactive: 0 | inactive: 0 | inactive: 0 | inactive: 0 | inactive: 0 | inactive: 0 | inactive: 0 | inactive: 0 | inactive: 0 | inactive: 0 | inactive: 0 | inactive: 0 | inactive: 0 | inactive: 0 |
| CN1CCN(c2ccc(-n3cc(-c4ccncc4OCC4CCNCC4)cn3)cc2)CC1 [MELK-8a (hydrochloride)] (10 µM) | inactive: 0 | inactive: 0 | inactive: 0 | inactive: 0 | inactive: 0 | inactive: 0 | inactive: 0 | inactive: 0 | inactive: 0 | inactive: 0 | inactive: 0 | inactive: 0 | inactive: 0 | inactive: 0 | inactive: 0 | inactive: 0 | inactive: 0 | inactive: 0 | inactive: 0 | inactive: 0 |
| CC1(C)C=Cc2c(ccc(C(=O)/C=C/c3ccc(O)cc3)c2O)O1 [4-Hydroxylonchocarpin] (10 µM) | inactive: 0 | inactive: 0 | inactive: 0 | inactive: 0 | inactive: 0 | inactive: 0 | inactive: 0 | inactive: 0 | inactive: 0 | inactive: 0 | inactive: 0 | inactive: 0 | inactive: 0 | inactive: 0 | inactive: 0 | inactive: 0 | inactive: 0 | inactive: 0 | inactive: 0 | inactive: 0 |
| Oc1ccc(-c2cnc3ccc(NCc4ccco4)nn23)cc1 [IRAK inhibitor 2] (2.5 µM) | inactive: 0 | inactive: 0 | inactive: 0 | inactive: 0 | inactive: 0 | inactive: 0 | inactive: 0 | inactive: 0 | inactive: 0 | inactive: 0 | inactive: 0 | inactive: 0 | inactive: 0 | inactive: 0 | inactive: 0 | inactive: 0 | inactive: 0 | inactive: 0 | inactive: 0 | inactive: 0 |
| Nc1ccc(-c2cccc(C(=O)Nc3cnc4nc(N5CCOCC5)oc4c3)n2)cn1 (10 µM) | inactive: 0 | inactive: 0 | inactive: 0 | inactive: 0 | inactive: 0 | inactive: 0 | inactive: 0 | active: 1 | inactive: 0 | inactive: 0 | inactive: 0 | inactive: 0 | inactive: 0 | inactive: 0 | inactive: 0 | inactive: 0 | inactive: 0 | inactive: 0 | inactive: 0 | inactive: 0 |
| O=c1cc(N2CCOCC2)oc2c(-c3cccc4c3sc3ccccc34)cccc12 (10 µM) | inactive: 0 | inactive: 0 | inactive: 0 | inactive: 0 | inactive: 0 | inactive: 0 | inactive: 0 | inactive: 0 | inactive: 0 | inactive: 0 | inactive: 0 | inactive: 0 | inactive: 0 | inactive: 0 | inactive: 0 | inactive: 0 | inactive: 0 | inactive: 0 | inactive: 0 | inactive: 0 |
| CNCc1ccccc1Sc1cccc2ccccc12 [IFN alpha-IFNAR-IN-1 (hydrochloride)] (10 µM) | inactive: 0 | inactive: 0 | inactive: 0 | inactive: 0 | inactive: 0 | inactive: 0 | inactive: 0 | inactive: 0 | inactive: 0 | inactive: 0 | inactive: 0 | inactive: 0 | inactive: 0 | inactive: 0 | inactive: 0 | inactive: 0 | inactive: 0 | inactive: 0 | inactive: 0 | inactive: 0 |
| Nc1ccc(C(=O)Nc2cccc(-c3nc(N4CCOCC4)c4oc5ncccc5c4n3)c2)cn1 (10 µM) | inactive: 0 | inactive: 0 | inactive: 0 | inactive: 0 | inactive: 0 | inactive: 0 | inactive: 0 | inactive: 0 | inactive: 0 | inactive: 0 | inactive: 0 | inactive: 0 | inactive: 0 | inactive: 0 | inactive: 0 | inactive: 0 | inactive: 0 | inactive: 0 | inactive: 0 | inactive: 0 |
| Nc1ccc(-c2nc3ccc(-c4nc5ccc(N)cc5[nH]4)cc3[nH]2)cc1 (10 µM) | inactive: 0 | inactive: 0 | inactive: 0 | inactive: 0 | inactive: 0 | inactive: 0 | inactive: 0 | inactive: 0 | inactive: 0 | inactive: 0 | inactive: 0 | inactive: 0 | inactive: 0 | inactive: 0 | inactive: 0 | inactive: 0 | inactive: 0 | inactive: 0 | inactive: 0 | inactive: 0 |
| COc1cc2nc(-c3cc(F)ccc3O)nc(N[C@@H]3CNC[C@H]3C(C)(C)O)c2cc1OC (2.5 µM) | inactive: 0 | inactive: 0 | inactive: 0 | inactive: 0 | inactive: 0 | inactive: 0 | inactive: 0 | inactive: 0 | inactive: 0 | inactive: 0 | inactive: 0 | inactive: 0 | inactive: 0 | inactive: 0 | inactive: 0 | inactive: 0 | inactive: 0 | inactive: 0 | inactive: 0 | inactive: 0 |
| CC(C)(CCCCCC(O)CCCCCC(C)(C)C(=O)O)C(=O)O [Bempedoic acid] (10 µM) | inactive: 0 | inactive: 0 | inactive: 0 | inactive: 0 | inactive: 0 | inactive: 0 | inactive: 0 | inactive: 0 | inactive: 0 | inactive: 0 | inactive: 0 | inactive: 0 | inactive: 0 | inactive: 0 | inactive: 0 | inactive: 0 | inactive: 0 | inactive: 0 | inactive: 0 | inactive: 0 |
| NC(=O)c1cnc(N[C@@H]2CCCC[C@@H]2N)nc1Nc1cccc(-n2nccn2)c1 (2.5 µM) | inactive: 0 | inactive: 0 | inactive: 0 | inactive: 0 | inactive: 0 | inactive: 0 | inactive: 0 | inactive: 0 | inactive: 0 | inactive: 0 | inactive: 0 | inactive: 0 | inactive: 0 | inactive: 0 | inactive: 0 | inactive: 0 | inactive: 0 | inactive: 0 | inactive: 0 | inactive: 0 |
| N#Cc1cc(-c2ccnc(Nc3ccc(N4CCOCC4)cc3)n2)ccc1OC1CCOCC1 (10 µM) | inactive: 0 | inactive: 0 | inactive: 0 | inactive: 0 | inactive: 0 | inactive: 0 | inactive: 0 | inactive: 0 | inactive: 0 | inactive: 0 | inactive: 0 | inactive: 0 | inactive: 0 | inactive: 0 | inactive: 0 | inactive: 0 | inactive: 0 | inactive: 0 | active: 1 | inactive: 0 |
| C=CC(=O)Nc1cccc(Oc2nc(Nc3ccc(N4CCN(C)CC4)cc3OC)ncc2Cl)c1 (10 µM) | inactive: 0 | inactive: 0 | inactive: 0 | inactive: 0 | inactive: 0 | inactive: 0 | inactive: 0 | inactive: 0 | inactive: 0 | inactive: 0 | inactive: 0 | inactive: 0 | inactive: 0 | inactive: 0 | inactive: 0 | inactive: 0 | inactive: 0 | inactive: 0 | active: 1 | inactive: 0 |

Some of the entries so far, as tab-separated lines.
SMILES	kinase-Nluc reporter destabilization hit call [1]	kinase-Nluc reporter destabilization hit call [2]	kinase-Nluc reporter destabilization hit call [3]	kinase-Nluc reporter destabilization hit call [4]	kinase-Nluc reporter destabilization hit call [5]	kinase-Nluc reporter destabilization hit call [6]	kinase-Nluc reporter destabilization hit call [7]	kinase-Nluc reporter destabilization hit call [8]	kinase-Nluc reporter destabilization hit call [9]	kinase-Nluc reporter destabilization hit call [10]	kinase-Nluc reporter destabilization hit call [11]	kinase-Nluc reporter destabilization hit call [12]	kinase-Nluc reporter destabilization hit call [13]	kinase-Nluc reporter destabilization hit call [14]	kinase-Nluc reporter destabilization hit call [15]	kinase-Nluc reporter destabilization hit call [16]	kinase-Nluc reporter destabilization hit call [17]	kinase-Nluc reporter destabilization hit call [18]	kinase-Nluc reporter destabilization hit call [19]	kinase-Nluc reporter destabilization hit call [20]
CO/N=C1/C(c2c(O)[nH]c3cc(Cl)c(Cl)cc23)=Nc2ccccc21 (10 µM)	inactive: 0	inactive: 0	inactive: 0	inactive: 0	inactive: 0	inactive: 0	inactive: 0	inactive: 0	inactive: 0	inactive: 0	inactive: 0	inactive: 0	inactive: 0	inactive: 0	inactive: 0	inactive: 0	inactive: 0	inactive: 0	inactive: 0	inactive: 0
CS(=O)(=O)c1cccc(CNc2nc(Nc3ccc4c(c3)CCC(=O)N4)ncc2C(F)(F)F)c1 (10 µM)	inactive: 0	inactive: 0	inactive: 0	inactive: 0	inactive: 0	inactive: 0	inactive: 0	inactive: 0	inactive: 0	inactive: 0	inactive: 0	inactive: 0	inactive: 0	inactive: 0	inactive: 0	inactive: 0	inactive: 0	inactive: 0	inactive: 0	inactive: 0
